From paper PMC9264908 come the findings set out here.

The chains behind the UniProt entries cited, without tags or fusion partners. Residues count along the entry.
UniProt Q15116, residues 25-288: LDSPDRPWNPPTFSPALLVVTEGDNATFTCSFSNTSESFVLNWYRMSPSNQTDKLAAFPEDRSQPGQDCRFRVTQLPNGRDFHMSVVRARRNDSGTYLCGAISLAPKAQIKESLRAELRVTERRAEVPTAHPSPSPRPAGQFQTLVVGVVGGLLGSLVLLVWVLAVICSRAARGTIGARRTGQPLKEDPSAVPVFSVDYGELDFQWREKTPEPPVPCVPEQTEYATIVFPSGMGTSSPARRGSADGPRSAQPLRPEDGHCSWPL
UniProt P08581, residues 25-1390: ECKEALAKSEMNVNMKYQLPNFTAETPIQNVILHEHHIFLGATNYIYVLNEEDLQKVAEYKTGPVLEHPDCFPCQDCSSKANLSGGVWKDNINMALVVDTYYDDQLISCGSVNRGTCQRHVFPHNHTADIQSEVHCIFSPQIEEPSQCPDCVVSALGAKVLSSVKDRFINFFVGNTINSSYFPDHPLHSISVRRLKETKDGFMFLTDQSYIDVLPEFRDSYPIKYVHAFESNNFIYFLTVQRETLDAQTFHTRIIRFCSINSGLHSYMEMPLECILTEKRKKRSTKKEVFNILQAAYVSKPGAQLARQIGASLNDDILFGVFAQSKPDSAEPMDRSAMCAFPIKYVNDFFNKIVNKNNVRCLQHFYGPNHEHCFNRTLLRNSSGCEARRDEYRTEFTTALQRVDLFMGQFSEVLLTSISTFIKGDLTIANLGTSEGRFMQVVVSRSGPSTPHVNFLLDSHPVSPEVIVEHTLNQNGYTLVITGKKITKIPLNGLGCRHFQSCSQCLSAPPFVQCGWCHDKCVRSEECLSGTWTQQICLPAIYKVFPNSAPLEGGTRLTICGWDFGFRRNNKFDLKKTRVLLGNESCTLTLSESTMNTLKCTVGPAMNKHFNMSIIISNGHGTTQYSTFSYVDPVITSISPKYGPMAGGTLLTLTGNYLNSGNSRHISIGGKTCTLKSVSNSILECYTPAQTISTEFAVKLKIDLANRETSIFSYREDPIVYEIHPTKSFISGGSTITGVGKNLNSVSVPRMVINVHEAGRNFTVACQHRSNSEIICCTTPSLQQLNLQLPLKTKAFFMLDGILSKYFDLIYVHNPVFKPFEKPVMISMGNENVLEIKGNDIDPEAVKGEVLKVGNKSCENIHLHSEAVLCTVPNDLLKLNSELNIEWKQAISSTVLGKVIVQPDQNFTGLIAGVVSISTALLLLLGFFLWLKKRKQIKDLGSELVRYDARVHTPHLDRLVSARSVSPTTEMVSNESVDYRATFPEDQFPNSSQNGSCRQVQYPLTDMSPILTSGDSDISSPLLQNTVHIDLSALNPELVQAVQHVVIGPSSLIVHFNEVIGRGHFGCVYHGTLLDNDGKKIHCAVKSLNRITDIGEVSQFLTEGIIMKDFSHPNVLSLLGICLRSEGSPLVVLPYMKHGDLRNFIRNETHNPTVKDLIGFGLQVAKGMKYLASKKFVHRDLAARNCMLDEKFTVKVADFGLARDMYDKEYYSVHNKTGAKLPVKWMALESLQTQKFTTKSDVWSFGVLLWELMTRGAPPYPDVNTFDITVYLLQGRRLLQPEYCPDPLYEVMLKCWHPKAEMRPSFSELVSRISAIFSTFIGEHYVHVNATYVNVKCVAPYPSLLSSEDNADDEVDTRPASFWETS

For this experiment, the target named is programmed cell death protein 1 (PD-1) (human (endogenous in PDAC cells)) (UniProt Q15116). Description: co-IP; PD-1 as bait: 1 mg pre-cleared PDAC cell lysate incubated overnight at 4 °C with 75 µg polyclonal anti-PD-1 or IgG; western blot with anti-MET and anti-PD-1 mAbs.

These are yes or no findings as the source states them, for the method shown. In cells and extracts the contact can be indirect.

In the case of “c-MET (MET, mesenchymal-epithelial transition factor) (from UniProt P08581 25-1390) (receptor)”, the binding entry is on record as “no binding”.
